Test results taken from PubChem BioAssay AID292 (DTP/NCI, 2004).
The list shows only some results of the screen, not a fair sample: it is rich in T/C values a quarter to a half above the control, in often repeated tests (any T/C) and in doses without a T/C. Other doses and runs of a compound stand elsewhere. T/C: endpoint of the treated group in % of that of the vehicle group. Some entries give survivors of the animals treated and no T/C: the source files T/C as zero there, which appears to mark a toxic dose or a test without result, not a measured value. Some survivor counts are full or nearly so, which does not show that the dose was tolerated: survival well below the control is almost never listed, so the zero probably covers shortened survival too. Counts of survivors are from the toxicity check (mostly the fifth day) where no day follows; animals may have died later. Schedules are NCI's codes, taken here to give the interval after Q, in days (D) or hours (H), and the number of doses after X. Some entries were tested several times; the values are given in rising order. Where survival is the endpoint, this PubChem deposit counts one and a half times the control or more as active, and values a quarter to a half above the control carry no call in these data; other NCI protocols may use other cut-offs. Some T/C values carry the count of animals alive at the toxicity check (mostly the fifth day); without a count, all were alive then.

Tested on: B6C3F1 mice, ip Sarcoma M5076, median survival T/C
Experiment: NCI In Vivo Anticancer Drug Screen. Data for tumor model Sarcoma M5076 (intraperitoneal) in B6C3F1 mice
Settings: T/C endpoint: median survival time, higher T/C = longer survival
How it was run: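 Mice carrying the transplanted tumour received compound treatment. Survival was recorded, and each value is the treated-group measurement divided by that of the vehicle-dosed control group.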

[1] = dose: 400.0 mg/kg/injection, schedule: Q04DX004 (ip), vehicle: saline with Tween-80
[2] = dose: 25.0 mg/kg/injection, schedule: Q04DX004 (ip), vehicle: Klucel (hydroxypropylcellulose) (HPC)
[3] = dose: 15.0 mg/kg/injection, schedule: Q04DX004 (ip), vehicle: Klucel (hydroxypropylcellulose) (HPC)

## CO[C@@]12[C@@H]3N[C@@H]3CN1C1=C(C(=O)C(NCCc3ccccn3)=C(C)C1=O)[C@@H]2COC(N)=O
dose: 3.13 mg/kg/injection, schedule: Q04DX004 (ip), vehicle: saline with Tween-80
  T/C: 129 % of control
dose: 6.25 mg/kg/injection, schedule: Q04DX004 (ip), vehicle: saline with Tween-80
  T/C: 128 % of control
dose: 9.0 mg/kg/injection, schedule: Q04DX004 (ip), vehicle: saline with Tween-80
  T/C: 125 % of control
dose: 12.5 mg/kg/injection, schedule: Q04DX004 (ip), vehicle: saline with Tween-80
  T/C: 133 % of control [9 of 10 alive on day 14]
dose: 15.0 mg/kg/injection, schedule: Q04DX004 (ip), vehicle: saline with Tween-80
  T/C: 140 % of control
dose: 50.0 mg/kg/injection, schedule: Q04DX004 (ip), vehicle: saline with Tween-80
  survivor count: 10 of 10 on day 14

## CC1=C(/C=C/C(C)=C/C=C/C(C)=C/C=O)C(C)(C)CCC1
dose: 300.0 mg/kg/injection, schedule: Q04DX004 (ip), vehicle: saline + alcohol
  survivor count: 9 of 10 on day 14
dose: 600.0 mg/kg/injection, schedule: Q04DX004 (ip), vehicle: saline + alcohol
  survivor count: 0 of 10 on day 14
dose: 1200.0 mg/kg/injection, schedule: Q04DX004 (ip), vehicle: saline + alcohol
  survivor count: 0 of 10 on day 14

## Cc1cc2c(=O)cc(-c3ccccc3)oc2c(C(=O)O)c1C
dose: 250.0 mg/kg/injection, schedule: Q04DX004 (ip), vehicle: saline with Tween-80
  survivor count: 5 of 10 on day 14
dose: 500.0 mg/kg/injection, schedule: Q04DX004 (ip), vehicle: saline with Tween-80
  survivor count: 0 of 10 on day 14

## COc1ccc(O)cc1
[1]
  survivor count: 3 of 10 on day 14

## O=C(O)c1ccc(NC(=O)C2C(=O)C(=O)N(c3ccc(C(=O)O)cc3)C2=O)cc1 (centres undefined)
dose: 800.0 mg/kg/injection, schedule: Q04DX004 (ip), vehicle: Klucel + Tween-80
  survivor count: 2 of 10 on day 14

## COc1cc(NS(C)(=O)=O)ccc1Nc1c2ccccc2nc2ccccc12
dose: 2.0 mg/kg/injection, schedule: Q04DX005 (ip), vehicle: other
  survivor count: 0 of 8 on day 17
dose: 4.0 mg/kg/injection, schedule: Q04DX005 (ip), vehicle: other
  survivor count: 0 of 8 on day 17
dose: 8.0 mg/kg/injection, schedule: Q04DX005 (ip), vehicle: other
  survivor count: 0 of 8 on day 17
dose: 16.0 mg/kg/injection, schedule: Q04DX005 (ip), vehicle: other
  survivor count: 0 of 8 on day 17
dose: 32.0 mg/kg/injection, schedule: Q04DX005 (ip), vehicle: other
  survivor count: 0 of 8 on day 17

## O=C1c2c(O)cccc2-c2nn(CCNCCO)c3ccc(NCCNCCO)c1c23
dose: 11.0 mg/kg/injection, schedule: Q04DX004 (ip), vehicle: water
  T/C: 131 % of control
dose: 22.0 mg/kg/injection, schedule: Q04DX004 (ip), vehicle: water
  survivor count: 2 of 10 on day 14
dose: 44.0 mg/kg/injection, schedule: Q04DX004 (ip), vehicle: water
  survivor count: 0 of 10 on day 14
dose: 88.0 mg/kg/injection, schedule: Q04DX004 (ip), vehicle: water
  survivor count: 0 of 10 on day 14

## CC1Oc2cc3c(-c4c(O)cc(O)c5c(O)c6c(cc45)OC(C)C(C)C6=O)c(O)cc(O)c3c(O)c2C(=O)C1C (centres undefined)
dose: 2.5 mg/kg/injection, schedule: Q01DX009 (ip), vehicle: suspension in saline
  T/C: 129 % of control
dose: 2.5 mg/kg/injection, schedule: Q04DX004 (ip), vehicle: suspension in saline
  T/C: 134 % of control
dose: 5.0 mg/kg/injection, schedule: Q01DX009 (ip), vehicle: suspension in saline
  survivor count: 0 of 10 on day 14
dose: 5.0 mg/kg/injection, schedule: Q04DX004 (ip), vehicle: suspension in saline
  T/C: 128, 135 [9 of 10 alive on day 14], 138 % of control
dose: 8.33 mg/kg/injection, schedule: Q04DX004 (ip), vehicle: suspension in saline
  T/C: 138 % of control
dose: 10.0 mg/kg/injection, schedule: Q01DX009 (ip), vehicle: suspension in saline
  survivor count: 0 of 10 on day 14
dose: 10.0 mg/kg/injection, schedule: Q04DX004 (ip), vehicle: suspension in saline
  survivor count: 4 of 10 on day 14
dose: 13.88 mg/kg/injection, schedule: Q04DX004 (ip), vehicle: suspension in saline
  survivor count: 7 of 10 on day 14 and 8 of 10 on day 14
dose: 20.0 mg/kg/injection, schedule: Q04DX004 (ip), vehicle: suspension in saline
  survivor count: 0 of 10 on day 14

## CS(=O)CCN=Cc1ccc(N=Nc2ccc(O)cc2)cc1 (centres undefined)
dose: 300.0 mg/kg/injection, schedule: Q04DX004 (ip), vehicle: saline with Tween-80
  survivor count: 9 of 10 on day 14

## CC(=O)/C(=C\c1ccc(/C=C(\C(C)=O)C(=O)CCN(C)C)cc1)C(=O)CCN(C)C
dose: 100.0 mg/kg/injection, schedule: Q04DX004 (ip), vehicle: saline with Tween-80
  survivor count: 8 of 8 on day 14
dose: 200.0 mg/kg/injection, schedule: Q04DX004 (ip), vehicle: saline with Tween-80
  survivor count: 8 of 8 on day 14
dose: 800.0 mg/kg/injection, schedule: Q04DX004 (ip), vehicle: saline with Tween-80
  survivor count: 2 of 7 on day 14

## COc1ccc(CCN2C(=O)C(=O)N(C(C)C)C2=O)cc1OC
[2]
  survivor count: 10 of 10 on day 14
dose: 50.0 mg/kg/injection, schedule: Q04DX004 (ip), vehicle: Klucel (hydroxypropylcellulose) (HPC)
  survivor count: 10 of 10 on day 14
dose: 100.0 mg/kg/injection, schedule: Q04DX004 (ip), vehicle: Klucel (hydroxypropylcellulose) (HPC)
  survivor count: 10 of 10 on day 14
dose: 200.0 mg/kg/injection, schedule: Q04DX004 (ip), vehicle: Klucel (hydroxypropylcellulose) (HPC)
  survivor count: 10 of 10 on day 14
dose: 400.0 mg/kg/injection, schedule: Q04DX004 (ip), vehicle: Klucel (hydroxypropylcellulose) (HPC)
  survivor count: 9 of 10 on day 14

## CC[C@@H](C)[C@H]([C@H](CC(=O)N1CCC[C@@H]1[C@@H](OC)[C@H](C)C(=O)N[C@H](Cc1ccccc1)c1nccs1)OC)N(C)C(=O)[C@H](NC(=O)[C@@H](C(C)C)N(C)C)C(C)C
dose: 4.0 micrograms/kg/injection, schedule: Q04DX004 (ip), vehicle: saline + alcohol
  T/C: 140 % of control
dose: 13.0 micrograms/kg/injection, schedule: Q04DX004 (ip), vehicle: saline + alcohol
  T/C: 142 % of control
dose: 22.0 micrograms/kg/injection, schedule: Q04DX004 (ip), vehicle: saline + alcohol
  T/C: 131 % of control

## C#CCN(Cc1ccc2nc(N)[nH]c(=O)c2c1)c1ccc(C(=O)NC(CCC(=O)O)C(=O)O)cc1 (centres undefined)
dose: 100.0 mg/kg/injection, schedule: Q04DX004 (ip), vehicle: water
  T/C: 143 % of control
dose: 200.0 mg/kg/injection, schedule: Q04DX004 (ip), vehicle: water
  T/C: 130 % of control
dose: 800.0 mg/kg/injection, schedule: Q04DX004 (ip), vehicle: water
  survivor count: 4 of 10 on day 14

## N=C1C=CC2C(=Nc3ccccc3[N+]2=O)N1CCO (centres undefined)
[1]
  survivor count: 0 of 10 on day 14

## COc1c(C=O)c2c(c(OC)c1OC)-c1ccc(OC)c(=O)cc1[C@@H](NC(C)=O)CC2
dose: 5.4 mg/kg/injection, schedule: Q04DX004 (ip), vehicle: Klucel (hydroxypropylcellulose) (HPC)
  T/C: 141 % of control
dose: 9.0 mg/kg/injection, schedule: Q04DX004 (ip), vehicle: Klucel (hydroxypropylcellulose) (HPC)
  T/C: 149 % of control [9 of 10 alive on day 14]
[3]
  T/C: 136 % of control
  survivor count: 3 of 10 on day 14
[2]
  survivor count: 4 of 10 on day 14
dose: 30.0 mg/kg/injection, schedule: Q04DX004 (ip), vehicle: Klucel (hydroxypropylcellulose) (HPC)
  T/C: 126 % of control
dose: 41.7 mg/kg/injection, schedule: Q04DX004 (ip), vehicle: Klucel (hydroxypropylcellulose) (HPC)
  survivor count: 5 of 10 on day 14
dose: 60.0 mg/kg/injection, schedule: Q04DX004 (ip), vehicle: Klucel (hydroxypropylcellulose) (HPC)
  survivor count: 8 of 10 on day 14

## N#Cc1c(-c2ccccc2)c(-c2ccccc2)nn(CC(=O)O)c1=O
dose: 400.0 mg/kg/injection, schedule: Q04DX004 (ip), vehicle: distilled water + Tween-80
  survivor count: 4 of 10 on day 14
dose: 800.0 mg/kg/injection, schedule: Q04DX004 (ip), vehicle: distilled water + Tween-80
  survivor count: 0 of 10 on day 14

## CCN(CC)CCOC(=O)c1cc2cc3cc(C(=O)OCCN(CC)CC)c(=O)oc3c(C)c2oc1=O
dose: 300.0 mg/kg/injection, schedule: Q04DX004 (ip), vehicle: saline
  survivor count: 8 of 10 on day 14

## O=C1N[C@@H]([C@H]2CC[C@H](Cl)CN2)C(=O)N[C@H]1[C@H]1CC[C@H](Cl)CN1
dose: 1.0 mg/kg/injection, schedule: Q04DX005 (ip), vehicle: saline
  T/C: 143 % of control
